Drawing on PMC4032982, this text covers binding for 3 molecules.

To fix the notation:
T1: AKINβγ (Arabidopsis thaliana (endogenous in leaves)) (UniProt Q944A6)
T1 sequence: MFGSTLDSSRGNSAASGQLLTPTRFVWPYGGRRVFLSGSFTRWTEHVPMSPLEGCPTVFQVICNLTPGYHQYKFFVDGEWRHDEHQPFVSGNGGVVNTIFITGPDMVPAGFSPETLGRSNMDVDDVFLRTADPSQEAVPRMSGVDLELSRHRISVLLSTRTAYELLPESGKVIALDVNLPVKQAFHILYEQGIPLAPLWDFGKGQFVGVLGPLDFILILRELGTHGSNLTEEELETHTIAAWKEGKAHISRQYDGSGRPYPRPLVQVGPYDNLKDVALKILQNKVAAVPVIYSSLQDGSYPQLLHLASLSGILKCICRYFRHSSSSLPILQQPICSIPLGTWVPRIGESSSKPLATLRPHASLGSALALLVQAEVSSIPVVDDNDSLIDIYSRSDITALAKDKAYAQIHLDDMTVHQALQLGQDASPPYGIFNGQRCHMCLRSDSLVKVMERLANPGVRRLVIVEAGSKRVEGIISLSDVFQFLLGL

B1: AKINβ1 (protein, UniProt Q84VQ1 1-283)
chain: MGNANGKDEDAAAGSGGADVTSSSARSNGGDPSARSRHRRPSSDSMSSSPPGSPARSPSPFLFAPQVPVAPLQRANAPPPNNIQWNQSQRVFDNPPEQGIPTIITWNQGGNDVAVEGSWDNWRSRKKLQKSGKDHSILFVLPSGIYHYKVIVDGESKYIPDLPFVADEVGNVCNILDVHNFVPENPESIVEFEAPPSPDHSYGQTLPAAEDYAKEPLAVPPQLHLTLLGTTEETAIATKPQHVVLNHVFIEQGWTPQSIVALGLTHRFESKYITVVLYKPLTR
B2: AKINγ (protein, UniProt Q8LBB2 1-424)
chain: MATVPEIKIMRSESLGHRSDVSSPEAKLGMRVEDLWDEQKPQLSPNEKLNACFESIPVSAFPLSSDSQDIEIRSDTSLAEAVQTLSKFKVLSAPVVDVDAPEDASWIDRYIGIVEFPGIVVWLLHQLEPPSPRSPAVAASNGFSHDFTTDVLDNGDSAVTSGNFFEVLTSSELYKNTKVRDISGTFRWAPFLALQKENSFLTMLLLLSKYKMKSIPVVDLGVAKIENIITQSGVIHMLAECAGLLWFEDWGIKTLSEVGLPIMSKDHIIKIYEDEPVLQAFKLMRRKRIGGIPVIERNSEKPVGNISLRDVQFLLTAPEIYHDYRSITTKNFLVSVREHLEKCGDTSAPIMSGVIACTKNHTLKELILMLDAEKIHRIYVVDDFGNLEGLITLRDIIARLVHEPSGYFGDFFDGVMPLPENYRV
B3: AKINβ2 (protein, UniProt Q9SCY5 1-289)
chain: MGNVNAREEANSNNASAVEDEDAEICSREAMSAASDGNHVAPPELMGQSPPHSPRATQSPLMFAPQVPVLPLQRPDEIHIPNPSWMQSPSSLYEEASNEQGIPTMITWCHGGKEIAVEGSWDNWKTRSRLQRSGKDFTIMKVLPSGVYEYRFIVDGQWRHAPELPLARDDAGNTFNILDLQDYVPEDIQSISGFEPPQSPENSYSNLLLGAEDYSKEPPVVPPHLQMTLLNLPAANPDIPSPLPRPQHVILNHLYMQKGKSGPSVVALGSTHRFLAKYVTVVLYKSLQR

Results are given in words; binding and its absence hold for the method and conditions named. Binding seen in cells or lysates may run through a third protein.

The target in the test is T1, AKINβγ (Arabidopsis thaliana (endogenous in leaves)). The test can be described thus: co-sedimentation; 40 μg desalted soluble leaf protein incubated with 5 mg starch granules or 10 mg amylose/amylopectin mixture (A/A) in 50 mM Tris-HCl pH 7.5, 30 min at 4°C; pellet collected at 5000 × g, washed, and blotted with antibodies against the SnRK1 subunits.
Consider B1, for which the binding entry was “no binding”.

Take B2: the binding result is recorded as “no binding”.

For B3, the binding entry is given as “no binding”.
